Results from patent US9931379B2, “Oxyntomodulin analogs and methods of making and using same” (The Research Foundation for The State University of New York, priority 2015, dated 2018).
Some results were stated once for a whole list of compounds, not compound by compound. Starred links: 1 amine or outer side, 2 acyl side, 3 side chain; linkers in the order of their positions; H or OH if unused. Positions of bridges follow the written chain, without caps; N, C: chain ends. Non-standard residues stand in square brackets, D forms with d. Residues, ends and D or L forms follow the SMILES beside them. CH2(3,3'-bipyridine-6,6')CH2 = c1cc(C[*:1])ncc1-c1ccc(C[*:2])nc1; Biphenyl(4,4'-CH2)2 = c1cc(-c2ccc(C[*:2])cc2)ccc1C[*:1]

Amino acid sequences for entries named in this document (tags omitted). Residues count along the entry.
UniProt P43220, 24-463: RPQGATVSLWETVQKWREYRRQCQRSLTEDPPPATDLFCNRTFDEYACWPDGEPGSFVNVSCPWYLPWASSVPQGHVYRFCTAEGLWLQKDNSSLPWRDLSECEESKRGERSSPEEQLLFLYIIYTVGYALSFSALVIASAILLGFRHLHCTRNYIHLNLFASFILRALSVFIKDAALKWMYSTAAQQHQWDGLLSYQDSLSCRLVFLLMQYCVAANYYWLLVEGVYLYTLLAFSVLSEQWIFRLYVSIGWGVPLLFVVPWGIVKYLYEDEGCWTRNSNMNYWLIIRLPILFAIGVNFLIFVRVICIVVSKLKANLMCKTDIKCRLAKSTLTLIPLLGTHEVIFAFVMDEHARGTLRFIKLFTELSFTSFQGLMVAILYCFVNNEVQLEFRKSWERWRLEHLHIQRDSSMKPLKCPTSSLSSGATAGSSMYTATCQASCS

Legend:
GLP-1R = biological target: T1, GLP-1R (Homo sapiens, UniProt P43220); assay: CRE-driven luciferase reporter assay, HEK293 cells overexpressing GLP-1R; assay type: cell-based; conditions: compared to peptide 5
T1 construct: expressed in transfected cells
Method: The surviving cells (referred to as CRE-HEK293) were expanded and then transfected with a G418 selective mammalian expression plasmid encoding human GCGR or GLP-1R, followed by geneticin selection (Life technologies, Carlsbad, Calif.). Single-colony stable cell lines expressing both CRE-luciferase and GCGR/GLP-1R were then established for in vitro activity assays.
HEK293-GCGR-CRE and HEK293-GLP-1R-CRE cells were seeded in a white 384-well plate at a density of 5,000 cells per well and cultured for 24 hours in DMEM with 10% FBS at 37° C. with 5% CO2. Cells were treated with different peptides in a dose dependent manner. After 24 hours, 10 μL of Bright-Glo reagent (Promega, Madison, Wis.) was added to each well and luminescence was determined using an Envision multilabel plate reader (PerkinElmer, Waltham, Mass.). The EC50 of each peptide was calculated using GraphPad Prism 6 software (GraphPad, San Diego, Calif.).

[1] = Far-UV circular dichroism measurement; assay type: physicochemical; conditions: based on [θ]222; 0.1×PBS, 25° C.

Structure (SMILES): CC[C@H](C)[C@H](NC(=O)[C@H](CC(N)=O)NC(=O)[C@H](CC(N)=O)NC(=O)[C@H](CCCNC(=N)N)NC(=O)[C@H](CC(N)=O)NC(=O)[C@H](CCCNC(=N)N)NC(=O)[C@H](CCCCN)NC(=O)[C@@H](NC(=O)[C@H](CC(N)=O)NC(=O)[C@H](CCSC)NC(=O)[C@H](CC(C)C)NC(=O)[C@H](Cc1c[nH]c2ccccc12)NC(=O)[C@H](CS)NC(=O)[C@@H](NC(=O)[C@H](Cc1ccccc1)NC(=O)[C@H](CCC(=O)O)NC(=O)[C@H](CCCCN)NC(=O)[C@H](C)NC(=O)[C@H](C)NC(=O)[C@H](CS)NC(=O)[C@H](CCC(=O)O)NC(=O)[C@H](CC(=O)O)NC(=O)[C@H](CC(C)C)NC(=O)[C@H](Cc1ccc(O)cc1)NC(=O)[C@H](CCCCN)NC(=O)[C@H](CO)NC(=O)[C@H](Cc1ccc(O)cc1)NC(=O)[C@H](CC(=O)O)NC(=O)[C@H](CO)NC(=O)[C@@H](NC(=O)[C@H](Cc1ccccc1)NC(=O)[C@@H](NC(=O)CNC(=O)[C@H](CCC(N)=O)NC(=O)[C@@H](CO)NC(=O)[C@@H](N)Cc1c[nH]cn1)[C@@H](C)O)[C@@H](C)O)[C@@H](C)CC)[C@@H](C)O)C(=O)N[C@@H](C)C(N)=O [peptide 7] (H-H[dS]QGTFTSDYSKYLDECAAKEFICWLMNTKRNRNNIA-NH2)
- higher potency in GLP-1R activation (GLP-1R): > 80 fold

Structure (SMILES): CC[C@H](C)[C@H](NC(=O)[C@H](CC(N)=O)NC(=O)[C@H](CC(N)=O)NC(=O)[C@H](CCCNC(=N)N)NC(=O)[C@H](CC(N)=O)NC(=O)[C@H](CCCNC(=N)N)NC(=O)[C@H](CCCCN)NC(=O)[C@@H](NC(=O)[C@H](CC(N)=O)NC(=O)[C@H](CCSC)NC(=O)[C@H](CC(C)C)NC(=O)[C@H](Cc1c[nH]c2ccccc12)NC(=O)[C@H](CS)NC(=O)[C@@H](NC(=O)[C@H](Cc1ccccc1)NC(=O)[C@H](CC(C)C)NC(=O)[C@H](CCCNC(=N)N)NC(=O)[C@@H](NC(=O)[C@H](C)NC(=O)[C@H](CS)NC(=O)[C@H](CCC(=O)O)NC(=O)[C@H](CC(=O)O)NC(=O)[C@H](CC(C)C)NC(=O)[C@H](Cc1ccc(O)cc1)NC(=O)[C@H](CCCCN)NC(=O)[C@H](CO)NC(=O)[C@H](Cc1ccc(O)cc1)NC(=O)[C@H](CC(=O)O)NC(=O)[C@H](CO)NC(=O)[C@@H](NC(=O)[C@H](Cc1ccccc1)NC(=O)[C@@H](NC(=O)CNC(=O)[C@H](CCC(N)=O)NC(=O)[C@@H](CO)NC(=O)[C@@H](N)Cc1c[nH]cn1)[C@@H](C)O)[C@@H](C)O)C(C)C)[C@@H](C)CC)[C@@H](C)O)C(=O)N[C@@H](C)C(N)=O [peptide 8] (H-H[dS]QGTFTSDYSKYLDECAVRLFICWLMNTKRNRNNIA-NH2)
- higher potency in GLP-1R activation (GLP-1R): > 80 fold

Structure (SMILES): CC[C@H](C)[C@H](NC(=O)[C@H](CC(N)=O)NC(=O)[C@H](CC(N)=O)NC(=O)[C@H](CCCNC(=N)N)NC(=O)[C@H](CC(N)=O)NC(=O)[C@H](CCCNC(=N)N)NC(=O)[C@H](CCCCN)NC(=O)[C@@H](NC(=O)[C@H](CC(N)=O)NC(=O)[C@H](CCSC)NC(=O)[C@H](CC(C)C)NC(=O)[C@H](Cc1c[nH]c2ccccc12)NC(=O)[C@@H]1CSCc2ccc(cc2)-c2ccc(cc2)CSC[C@H](NC(=O)[C@H](CCC(=O)O)NC(=O)[C@H](CC(=O)O)NC(=O)[C@H](CC(C)C)NC(=O)[C@H](Cc2ccc(O)cc2)NC(=O)[C@H](CCCCN)NC(=O)[C@H](CO)NC(=O)[C@H](Cc2ccc(O)cc2)NC(=O)[C@H](CC(=O)O)NC(=O)[C@H](CO)NC(=O)[C@@H](NC(=O)[C@H](Cc2ccccc2)NC(=O)[C@@H](NC(=O)CNC(=O)[C@H](CCC(N)=O)NC(=O)[C@@H](CO)NC(=O)[C@@H](N)Cc2c[nH]cn2)[C@@H](C)O)[C@@H](C)O)C(=O)N[C@@H](C)C(=O)N[C@@H](C)C(=O)N[C@@H](CCCCN)C(=O)N[C@@H](CCC(=O)O)C(=O)N[C@@H](Cc2ccccc2)C(=O)N[C@@H]([C@@H](C)CC)C(=O)N1)[C@@H](C)O)C(=O)N[C@@H](C)C(N)=O [peptide 9] (H-H[dS]QGTFTSDYSKYLDECAAKEFICWLMNTKRNRNNIA-NH2; linker 17-24 via Biphenyl(4,4'-CH2)2)
- percent helicity [1]: 20-23%

Structure (SMILES): CC[C@H](C)[C@H](NC(=O)[C@H](CC(N)=O)NC(=O)[C@H](CC(N)=O)NC(=O)[C@H](CCCNC(=N)N)NC(=O)[C@H](CC(N)=O)NC(=O)[C@H](CCCNC(=N)N)NC(=O)[C@H](CCCCN)NC(=O)[C@@H](NC(=O)[C@H](CC(N)=O)NC(=O)[C@H](CCSC)NC(=O)[C@H](CC(C)C)NC(=O)[C@H](Cc1c[nH]c2ccccc12)NC(=O)[C@@H]1CSCc2ccc(cn2)-c2ccc(nc2)CSC[C@H](NC(=O)[C@H](CCC(=O)O)NC(=O)[C@H](CC(=O)O)NC(=O)[C@H](CC(C)C)NC(=O)[C@H](Cc2ccc(O)cc2)NC(=O)[C@H](CCCCN)NC(=O)[C@H](CO)NC(=O)[C@H](Cc2ccc(O)cc2)NC(=O)[C@H](CC(=O)O)NC(=O)[C@H](CO)NC(=O)[C@@H](NC(=O)[C@H](Cc2ccccc2)NC(=O)[C@@H](NC(=O)CNC(=O)[C@H](CCC(N)=O)NC(=O)[C@@H](CO)NC(=O)[C@@H](N)Cc2c[nH]cn2)[C@@H](C)O)[C@@H](C)O)C(=O)N[C@@H](C)C(=O)N[C@@H](C)C(=O)N[C@@H](CCCCN)C(=O)N[C@@H](CCC(=O)O)C(=O)N[C@@H](Cc2ccccc2)C(=O)N[C@@H]([C@@H](C)CC)C(=O)N1)[C@@H](C)O)C(=O)N[C@@H](C)C(N)=O [peptide 11] (H-H[dS]QGTFTSDYSKYLDECAAKEFICWLMNTKRNRNNIA-NH2; linker 17-24 via CH2(3,3'-bipyridine-6,6')CH2)
- percent helicity [1]: 20-23%
